From PMC5906681, “BRI1 and BAK1 interact with G proteins and regulate sugar-responsive growth and development in Arabidopsis” (Nature Communications, 2018)

Tests used:
BAK1-nYFP (Arabidopsis) = BAK1-nYFP (Arabidopsis) (UniProt F4JIX9); assay: split reporter; BiFC; nYFP and cYFP fusions coexpressed in leaves of N. benthamiana by Agrobacterium GV3101; YFP fluorescence observed after 72 h
[1] = target: GST-fused BAK1 kinase domain (Arabidopsis); assay: pull-down; about 15 μg GST fusion with about 30 μg MBP fusion in 900 μL TGH buffer (10% glycerol, 1% Triton X-100, 1.5 mM MgCl2, 150 mM NaCl, 1 mM EGTA, 50 mM HEPES, pH 7.5); 30 μL GST beads, about 1 h; immunoblot with anti-MBP and anti-GST; both purified
BAK1-GFP (Arabidopsis) = assay: co-IP; total proteins of transgenic Arabidopsis seedlings, GFP-Trap-A agarose beads; immunoblot with anti-GFP and anti-Myc or anti-HA; for BRI1-GFP with BAK1-HA seedlings treated with 0-6% glucose or mannitol for 4 or 24 h; for BRI1 with AGB1 also 2% glucose
[2] = target: GST-fused BAK1 kinase domain (Arabidopsis); assay: condition: about 30 μg MBP fusion with about 15 μg GST fusion in 900 μL; pull-down; about 15 μg GST fusion with about 30 μg MBP fusion in 900 μL TGH buffer (10% glycerol, 1% Triton X-100, 1.5 mM MgCl2, 150 mM NaCl, 1 mM EGTA, 50 mM HEPES, pH 7.5); 30 μL GST beads, about 1 h; immunoblot with anti-MBP and anti-GST; both purified

binding (BAK1-nYFP (Arabidopsis)) | Binder | also measured
binds | AGG1-cYFP (protein, UniProt Q9FDX9 1-98) MREETVVYEQEESVSHGGGKHRILAELARVEQEVAFLEKELKEVENTDIVSTVCEELLSVIEKGPDPLLPLTNGPLNLGWDRWFEGPNGGEGCRCLIL | 
 | MBP-AGG1 (natural protein, Arabidopsis, UniProt Q9FDX9 1-98, looked up, AGG1, Arabidopsis G protein gamma subunit 1; also called G protein gamma subunit; source: E. coli (pMAL-c2); not shown: MBP, N-terminal, kept) MREETVVYEQEESVSHGGGKHRILAELARVEQEVAFLEKELKEVENTDIVSTVCEELLSVIEKGPDPLLPLTNGPLNLGWDRWFEGPNGGEGCRCLIL | binding [1]: binds
binds | AGG2-cYFP (protein, UniProt Q93V47 1-100) MEAGSSNSSGQLSGRVVDTRGKHRIQAELKRLEQEARFLEEELEQLEKMDNASASCKEFLDSVDSKPDPLLPETTGPVNATWDQWFEGPKEAKRCGCSIL | 
 | MBP-AGG2 (natural protein, Arabidopsis, UniProt Q93V47 1-100, looked up, AGG2, Arabidopsis G protein gamma subunit 2; also called G protein gamma subunit; source: E. coli (pMAL-c2); not shown: MBP, N-terminal, kept) MEAGSSNSSGQLSGRVVDTRGKHRIQAELKRLEQEARFLEEELEQLEKMDNASASCKEFLDSVDSKPDPLLPETTGPVNATWDQWFEGPKEAKRCGCSIL | binding [1]: binds
binds | RGS1-cYFP (protein, UniProt Q8H1F2 1-459) MASGCALHGGCPSDYVAVAISVICFFVLLSRSVLPCLIHKAPRTNSSSFWIPVIQVISSFNLLFSIMMSVNLLRFRTKHWWRYCYLWAVWIEGPLGFGLLMSCRITQAFQLYFIFVKKRLPPVKSYIFLPLVLLPWIFGAAIIHATKPLNDKCHMGLQWTFPVAGLHALYVLALIAFTRAVRHVEFRFDELRDLWKGILVSATSIVIWVTAFVLNEIHEEISWLQVASRFVLLVTGGILVVVFFSISSNQPLLSQISLKKRQNFEFQRMGQALGIPDSGLLFRKEEFRPVDPNEPLDKLLLNKRFRHSFMEFADSCYAGETLHFFEEVYEHGKIPEDDSIRRIYMARHIMEKFIVAGAEMELNLSHKTRQEILTTQDLTHTDLFKNALNEVMQLIKMNLVRDYWSSIYFIKFKEEESCHEAMHKEGYSFSSPRLSSVQGSDDPFYQEHMSKSSRCSSPG | 
 | Myc-RGS1 (protein, UniProt Q8H1F2 1-459) MASGCALHGGCPSDYVAVAISVICFFVLLSRSVLPCLIHKAPRTNSSSFWIPVIQVISSFNLLFSIMMSVNLLRFRTKHWWRYCYLWAVWIEGPLGFGLLMSCRITQAFQLYFIFVKKRLPPVKSYIFLPLVLLPWIFGAAIIHATKPLNDKCHMGLQWTFPVAGLHALYVLALIAFTRAVRHVEFRFDELRDLWKGILVSATSIVIWVTAFVLNEIHEEISWLQVASRFVLLVTGGILVVVFFSISSNQPLLSQISLKKRQNFEFQRMGQALGIPDSGLLFRKEEFRPVDPNEPLDKLLLNKRFRHSFMEFADSCYAGETLHFFEEVYEHGKIPEDDSIRRIYMARHIMEKFIVAGAEMELNLSHKTRQEILTTQDLTHTDLFKNALNEVMQLIKMNLVRDYWSSIYFIKFKEEESCHEAMHKEGYSFSSPRLSSVQGSDDPFYQEHMSKSSRCSSPG | binding (BAK1-GFP (Arabidopsis)): binds
 | MBP-GPA1 (protein, UniProt P18064 1-383) MGLLCSRSRHHTEDTDENTQAAEIERRIEQEAKAEKHIRKLLLLGAGESGKSTIFKQIKLLFQTGFDEGELKSYVPVIHANVYQTIKLLHDGTKEFAQNETDSAKYMLSSESIAIGEKLSEIGGRLDYPRLTKDIAEGIETLWKDPAIQETCARGNELQVPDCTKYLMENLKRLSDINYIPTKEDVLYARVRTTGVVEIQFSPVGENKKSGEVYRLFDVGGQRNERRKWIHLFEGVTAVIFCAAISEYDQTLFEDEQKNRMMETKELFDWVLKQPCFEKTSFMLFLNKFDIFEKKVLDVPLNVCEWFRDYQPVSSGKQEIEHAYEFVKKKFEELYYQNTAPDRVDRVFKIYRTTALDQKLVKKTFKLVDETLRRRNLLEAGLL | binding [2]: no binding
no binding | GPA1-cYFP (protein, UniProt P18064 1-383) MGLLCSRSRHHTEDTDENTQAAEIERRIEQEAKAEKHIRKLLLLGAGESGKSTIFKQIKLLFQTGFDEGELKSYVPVIHANVYQTIKLLHDGTKEFAQNETDSAKYMLSSESIAIGEKLSEIGGRLDYPRLTKDIAEGIETLWKDPAIQETCARGNELQVPDCTKYLMENLKRLSDINYIPTKEDVLYARVRTTGVVEIQFSPVGENKKSGEVYRLFDVGGQRNERRKWIHLFEGVTAVIFCAAISEYDQTLFEDEQKNRMMETKELFDWVLKQPCFEKTSFMLFLNKFDIFEKKVLDVPLNVCEWFRDYQPVSSGKQEIEHAYEFVKKKFEELYYQNTAPDRVDRVFKIYRTTALDQKLVKKTFKLVDETLRRRNLLEAGLL | 
 | MBP-AGB1 (natural protein, Arabidopsis, UniProt P49177 1-377, looked up, AGB1, Arabidopsis G protein beta subunit; Cloned into the EcoR I and Pst I sites of pMAL-c2; also called G protein beta subunit; source: E. coli (pMAL-c2); not shown: MBP, N-terminal, kept) MSVSELKERHAVATETVNNLRDQLRQRRLQLLDTDVARYSAAQGRTRVSFGATDLVCCRTLQGHTGKVYSLDWTPERNRIVSASQDGRLIVWNALTSQKTHAIKLPCAWVMTCAFSPNGQSVACGGLDSVCSIFSLSSTADKDGTVPVSRMLTGHRGYVSCCQYVPNEDAHLITSSGDQTCILWDVTTGLKTSVFGGEFQSGHTADVLSVSISGSNPNWFISGSCDSTARLWDTRAASRAVRTFHGHEGDVNTVKFFPDGYRFGTGSDDGTCRLYDIRTGHQLQVYQPHGDGENGPVTSIAFSVSGRLLFAGYASNNTCYVWDTLLGEVVLDLGLQQDSHRNRISCLGLSADGSALCTGSWDSNLKIWAFGGHRRVI | binding [2]: no binding
no binding | AGB1-cYFP (protein, UniProt P49177 1-377) MSVSELKERHAVATETVNNLRDQLRQRRLQLLDTDVARYSAAQGRTRVSFGATDLVCCRTLQGHTGKVYSLDWTPERNRIVSASQDGRLIVWNALTSQKTHAIKLPCAWVMTCAFSPNGQSVACGGLDSVCSIFSLSSTADKDGTVPVSRMLTGHRGYVSCCQYVPNEDAHLITSSGDQTCILWDVTTGLKTSVFGGEFQSGHTADVLSVSISGSNPNWFISGSCDSTARLWDTRAASRAVRTFHGHEGDVNTVKFFPDGYRFGTGSDDGTCRLYDIRTGHQLQVYQPHGDGENGPVTSIAFSVSGRLLFAGYASNNTCYVWDTLLGEVVLDLGLQQDSHRNRISCLGLSADGSALCTGSWDSNLKIWAFGGHRRVI | 
binds | AGG3-cYFP (protein, UniProt Q6AWT8 1-251) MSAPSGGGEGGGKESAAGGVSSSSLAPSSLPPPRPKSPPEYPDLYGKRREAARVQMLEREIGFLEGEIKFIEGVQPASRCIKEVSDFVVANSDPLIPAQRKSRRSFRFWKWLCGPCLSLVSFCCCCQSKCSCHLRKPKCCNCTSCSCIGSKCCDGSCCSNICCCPRLSCPSCSCFRGCWCSCPDMSCCIPSCFRSCSCTRPSCLNKKKSSCCSCNCKIRWSSCFSCPKVRLCSCCFCNCKNLCSNPCCLAF | 

These are yes or no findings as the source states them, for the method shown. For some assays here: A result given as binding can be weak or reduced; the word gives no strength. Tags and fused reporters may be left off the sequences shown. For some assays here: In cells and extracts the contact can be indirect.
